In patent US20080200492A1, “METHODS FOR THE TREATMENT OF ALCOHOL ABUSE, ADDICTION AND DEPENDENCY” (priority 2006, published 2008):

System: alcohol preferring rats
Test: Alcohol Preferring Rats, Study B: Post-Deprivation Effect
Type: in vivo, rat
Details: 45 min before re-exposure to alcohol after 72 hours deprivation
Procedure: Adult male selectively-bred alcohol preferring rats were used in this study. The selectively bred alcohol preferring rats are widely used to study the suppressant effects of compounds on voluntary alcohol intake (Faren et al. 2000; Rezvani et al, 1990, 1991, 1992a, 1992b, 1999, 2000, 2002; 2003; Murphy et al, 1988; Overstreet et al., 1992, 1999; Li and McBride, 1995).
The rats were housed individually under a constant room temperature of 22±1° C. and 12:12 light-dark cycle (7:00-19:00, dark). Animals were fed Agway Prolab Rat/Mouse/Hamster 3000 formula and water ad libitum.
Alcohol intake was determined using a standard two-bottle choice method (Murphy et al. 1988; McBride et al. 1990; Rezvani et al. 1990, 1991, 1993, 1995, 1997, Rezvani et al., 2007a,b; Rezvani and Grady, 1994). Animals were first given free access to water in a graduated Richter tube for 1 day. Next, they were given access to only a solution of 10% (v/v) ethanol for 3 consecutive days. During this period the animals became accustomed to drinking from Richter tubes and to the taste and pharmacological effects of alcohol. Thereafter, the animals were given free access to both water and a solution of 10% alcohol for 4 consecutive weeks and throughout of the study. The animals continued to have free access to food. Water and alcohol intake were recorded at 6 and 24 hour.
Following Study A, the rats were maintained on alcohol for 15 days without drug. On day 16 post-gavage, rats were put on food and water only for 72 hours. On the next day, 45 min before re-exposure to alcohol, the rats were treated with vehicle (0.5% methylcellulose), naltrexone (at 20 mg/kg) or compound of formula (I-A) (at 30-mg/kg). Alcohol intake was then measured at 1, 3, 6 and 24 hr after exposure.
The results are presented as a means. Alcohol intake (g/kg) was calculated by multiplying the volume of alcohol consumed in ml by 10% and 0.7893 (ethanol density)/body weight in kg. Alcohol preference, expressed as percentage was calculated as (volume of alcohol consumed in ml/total fluid intake in ml)×100 (Rezvani and Grady, 1994; Rezvani et al., 2007a). Statistical differences between drug-treated and control groups was determined by using ANOVA and Tukey Student's t test for multiple comparison.
The results from Study B provide a measure of the effectiveness of the test compound to suppress post-deprivation-induced craving for alcohol.

SMILES	Water (30 mg/kg, 1 Hour Post Dosing) [g/kg]	Water (30 mg/kg, 3 Hours Post Dosing) [g/kg]	Water (30 mg/kg, 6 Hours Post Dosing) [g/kg]	Water (30 mg/kg, 24 Hours Post Dosing) [g/kg]	Water (20 mg/kg, 1 Hour Post Dosing) [g/kg]	Water (20 mg/kg, 3 Hours Post Dosing) [g/kg]	Water (20 mg/kg, 6 Hours Post Dosing) [g/kg]	Water (20 mg/kg, 24 Hours Post Dosing) [g/kg]
Cc1cccc2cccc(CN3CCC4(CC3)C(=O)N(C[C@H](O)CN)CN4c3ccc(F)cc3)c12 [Cmpd (I-A), 3-(3-amino-2-(R)-hydroxy-propyl)-1-(4-fluoro-phenyl)-8-(8-methyl-naphthalen-1-ylmethyl)-1,3,8-triazaspiro[4.5]decan-4-one]	0.85	3.88	5.78	14.67	–	–	–	–
O=C1CC[C@@]2(O)[C@H]3Cc4ccc(O)c5c4[C@@]2(CCN3CC2CC2)[C@H]1O5 [Naltrexone, naltrexone, reference compound]	–	–	–	–	0.26	0.88	4.12	12.26
